{"sequences": {"note": "Sequences of proteins named here, by UniProt entry; tags and fusion partners are left off. Residues count along the entry.", "UniProt P46934": "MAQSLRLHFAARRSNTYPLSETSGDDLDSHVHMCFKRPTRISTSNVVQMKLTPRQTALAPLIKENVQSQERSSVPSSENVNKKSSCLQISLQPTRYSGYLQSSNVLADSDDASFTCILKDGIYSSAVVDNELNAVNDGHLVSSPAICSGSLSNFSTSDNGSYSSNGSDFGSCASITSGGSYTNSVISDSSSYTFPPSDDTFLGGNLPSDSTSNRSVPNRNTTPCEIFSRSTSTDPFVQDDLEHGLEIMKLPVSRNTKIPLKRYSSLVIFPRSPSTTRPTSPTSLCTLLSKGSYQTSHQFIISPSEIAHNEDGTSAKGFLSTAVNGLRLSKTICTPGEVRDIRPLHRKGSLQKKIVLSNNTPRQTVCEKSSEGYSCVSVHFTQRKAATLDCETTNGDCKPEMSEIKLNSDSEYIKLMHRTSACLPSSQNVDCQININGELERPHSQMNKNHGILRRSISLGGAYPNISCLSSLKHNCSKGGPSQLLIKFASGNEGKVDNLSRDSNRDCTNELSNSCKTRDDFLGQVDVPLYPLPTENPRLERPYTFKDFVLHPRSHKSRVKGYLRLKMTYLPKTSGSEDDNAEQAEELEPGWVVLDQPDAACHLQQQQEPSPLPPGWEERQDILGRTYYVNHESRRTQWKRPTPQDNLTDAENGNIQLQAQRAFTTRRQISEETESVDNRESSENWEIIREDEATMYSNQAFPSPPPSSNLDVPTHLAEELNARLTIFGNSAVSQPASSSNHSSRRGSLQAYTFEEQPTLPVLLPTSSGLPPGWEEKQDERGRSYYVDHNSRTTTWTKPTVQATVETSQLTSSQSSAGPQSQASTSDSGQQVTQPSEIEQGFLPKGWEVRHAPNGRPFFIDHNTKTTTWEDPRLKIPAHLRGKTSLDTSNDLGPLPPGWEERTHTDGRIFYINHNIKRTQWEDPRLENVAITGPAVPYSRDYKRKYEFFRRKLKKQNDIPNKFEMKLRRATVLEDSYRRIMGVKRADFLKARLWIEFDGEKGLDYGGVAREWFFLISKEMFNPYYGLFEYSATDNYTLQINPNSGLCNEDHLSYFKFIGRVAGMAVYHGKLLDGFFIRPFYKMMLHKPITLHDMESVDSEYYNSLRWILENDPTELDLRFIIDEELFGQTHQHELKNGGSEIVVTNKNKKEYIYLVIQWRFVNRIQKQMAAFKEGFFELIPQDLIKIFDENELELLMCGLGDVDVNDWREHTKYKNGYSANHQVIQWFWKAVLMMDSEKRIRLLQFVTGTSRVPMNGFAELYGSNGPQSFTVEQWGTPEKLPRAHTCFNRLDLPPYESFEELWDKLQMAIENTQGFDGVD", "UniProt P03120, residues 1-200": "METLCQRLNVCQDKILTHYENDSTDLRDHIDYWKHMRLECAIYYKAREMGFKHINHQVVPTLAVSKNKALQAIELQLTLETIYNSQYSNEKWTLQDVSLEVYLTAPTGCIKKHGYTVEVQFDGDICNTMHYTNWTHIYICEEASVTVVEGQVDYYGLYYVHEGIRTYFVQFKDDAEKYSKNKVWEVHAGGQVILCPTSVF"}, "source": "paper PMC8546539", "about": "“CK2 Phosphorylation of Human Papillomavirus 16 E2 on Serine 23 Promotes Interaction with TopBP1 and Is Critical for E2 Interaction with Mitotic Chromatin and the Viral Life Cycle” (mBio, 2021)", "key": {"[1]": {"biological_target": "GST-tagged NEDD4 E3 ligase (UniProt P46934)", "assay": "pull-down; GST pull-down as in Fig. 2A following 1 h at 30°C with CK2 enzyme, 200 μM ATP and 30 mM MgCl2, and controls without cofactors or without enzyme; both purified"}, "[2]": {"biological_target": "GST-tagged NEDD4 E3 ligase (UniProt P46934)", "assay": "pull-down; both purified"}}, "note": "Results are given in words; binding and its absence hold for the method and conditions named.", "data": [{"substance": "His-E2-WT (amino acids 1 to 200) phosphorylated in vitro by CK2 (from UniProt P03120 1-200) (domain or fragment)", "values": [{"measurement": "binding", "setting": "[1]", "result": "no binding"}]}, {"substance": "His-E2-WT (amino acids 1 to 200), not phosphorylated (from UniProt P03120 1-200) (domain or fragment)", "values": [{"measurement": "binding", "setting": "[2]", "result": "no binding (tested: 11 pmol E2, 0.65 pmol GST-NEDD4)"}]}]}
